Results are given in words; binding and its absence hold for the method and conditions named. Binding seen in cells or lysates may run through a third protein. Some entries that bind do so weakly or less than the wild type.
B1: dFKBP59 (protein, UniProt Q9VL78 1-439)
chain: MPEGNKIDLSGDGGVLKEILKEGTGTETPHSGCTVSLHYTGRLVDGTEFDSSLSRNEPFEFSLGKGNVIKAFDMGVATMKLGERCFLTCAPNYAYGAAGSPPAIPPDATLIFELEMLGWKGEDLSPNQDGSIDRTILEASDKKRTPSDGAFVKAHISGSFEGRVFEDRDVEFDYGEGKAIGIIDGVEIALEKMNVGETSRIKIQAKYAFGAKGNEEFKIPPNATVEYTVKLVDCGKGLEEWKLSDEERLAEAKVYKEKGTNYFKKENWALAIKMYTKCKNILPTTVHTNEEVKKIKVATHSNIALCHQKSNDHFEAKQECNEVLALDKNNVKALYRRGQCNLTINELEDALEDFQKVIQLEPGNKAAANQVIICKQKLKESKNKEKKLYANMFTKLAANDKETEPPRETDVLSKCGEWSEEDAKREAELTLERDNIIMI
B2: Aubergine, O76922 1-866 (protein)
chain: MNLPPNPVIARGRGRGRKPNNVEANRGFAPSLGQKSDPSHSEGNQASGGNGGGGDAQVGPSIEKSSLSAVQMHKSEGDPRGSVRGRRLITDLVYSRPPGMTSKKGVVGTHITVQANYFKVLKRPNWTIYQYRVDFTPDVEATRLRRSFLYEHKGILGGYIFDGTNMFCINQFKAVQDSPYVLELVTKSRAGENIEIKIKAVGSVQSTDAEQFQVLNLILRRAMEGLDLKLVSRYYYDPQAKINLENFRMQLWPGYQTSIRQHENDILLCSEICHKVMRTETLYNILSDAIRDSDDYQSTFKRAVMGMVILTDYNNKTYRIDDVDFQSTPLCKFKTNDGEISYVDYYKKRYNIIIRDLKQPLVMSRPTDKNIRGGNDQAIMIIPELARATGMTDAMRADFRTLRAMSEHTRLNPDRRIERLRMFNKRLKSCKQSVETLKSWNIELDSALVEIPARVLPPEKILFGNQKIFVCDARADWTNEFRTCSMFKNVHINRWYVITPSRNLRETQEFVQMCIRTASSMKMNICNPIYEEIPDDRNGTYSQAIDNAAANDPQIVMVVMRSPNEEKYSCIKKRTCVDRPVPSQVVTLKVIAPRQQKPTGLMSIATKVVIQMNAKLMGAPWQVVIPLHGLMTVGFDVCHSPKNKNKSYGAFVATMDQKESFRYFSTVNEHIKGQELSEQMSVNMACALRSYQEQHRSLPERILFFRDGVGDGQLYQVVNSEVNTLKDRLDEIYKSAGKQEGCRMTFIIVSKRINSRYFTGHRNPVPGTVVDDVITLPERYDFFLVSQAVRIGTVSPTSYNVISDNMGLNADKLQMLSYKMTHMYYNYSGTIRVPAVCHYAHKLAFLVAESINRAPSAGLQNQLYFL

Chains of the proteins cited; added tags and fusions are not shown.
UniProt P11147: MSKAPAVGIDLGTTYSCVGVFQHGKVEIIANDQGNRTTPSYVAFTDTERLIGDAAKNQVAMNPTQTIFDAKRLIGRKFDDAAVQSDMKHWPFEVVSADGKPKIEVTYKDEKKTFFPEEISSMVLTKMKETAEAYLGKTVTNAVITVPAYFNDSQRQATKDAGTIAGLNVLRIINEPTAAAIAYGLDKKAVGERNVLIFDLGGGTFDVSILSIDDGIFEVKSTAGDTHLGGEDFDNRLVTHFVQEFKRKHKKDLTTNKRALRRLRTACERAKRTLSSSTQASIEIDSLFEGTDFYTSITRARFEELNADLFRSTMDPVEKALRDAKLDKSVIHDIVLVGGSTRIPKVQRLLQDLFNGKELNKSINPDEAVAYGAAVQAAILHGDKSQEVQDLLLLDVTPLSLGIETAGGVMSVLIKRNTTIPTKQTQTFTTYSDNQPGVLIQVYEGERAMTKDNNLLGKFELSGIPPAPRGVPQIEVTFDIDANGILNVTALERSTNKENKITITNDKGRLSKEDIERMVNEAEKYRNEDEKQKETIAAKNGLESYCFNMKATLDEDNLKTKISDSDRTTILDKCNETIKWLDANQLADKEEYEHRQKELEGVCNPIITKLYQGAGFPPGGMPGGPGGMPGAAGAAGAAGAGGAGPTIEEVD
UniProt P02828: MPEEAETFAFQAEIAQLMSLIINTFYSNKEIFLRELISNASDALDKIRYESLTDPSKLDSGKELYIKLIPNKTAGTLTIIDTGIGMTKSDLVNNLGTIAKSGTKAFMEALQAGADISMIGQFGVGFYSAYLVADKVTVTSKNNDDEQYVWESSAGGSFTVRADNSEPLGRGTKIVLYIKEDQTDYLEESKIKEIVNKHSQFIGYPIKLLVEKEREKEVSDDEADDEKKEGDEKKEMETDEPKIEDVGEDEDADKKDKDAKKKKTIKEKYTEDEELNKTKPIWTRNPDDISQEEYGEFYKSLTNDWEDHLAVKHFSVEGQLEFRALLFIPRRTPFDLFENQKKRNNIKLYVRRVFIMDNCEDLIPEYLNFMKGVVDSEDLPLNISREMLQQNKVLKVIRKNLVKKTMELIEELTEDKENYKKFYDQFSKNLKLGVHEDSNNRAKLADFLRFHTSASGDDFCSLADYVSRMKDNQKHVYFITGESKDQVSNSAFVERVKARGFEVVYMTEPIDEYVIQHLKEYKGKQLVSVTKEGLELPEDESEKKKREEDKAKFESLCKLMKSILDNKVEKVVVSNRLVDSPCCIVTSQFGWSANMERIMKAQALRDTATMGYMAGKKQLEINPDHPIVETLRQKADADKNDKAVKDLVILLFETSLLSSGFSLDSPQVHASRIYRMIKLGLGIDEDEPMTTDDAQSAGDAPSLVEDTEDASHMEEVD

What was measured:
[1] = biological target: T1, Ago3 (Drosophila melanogaster (endogenous in ovaries)) (UniProt Q7PLK0); experiment: co-IP
T1 sequence: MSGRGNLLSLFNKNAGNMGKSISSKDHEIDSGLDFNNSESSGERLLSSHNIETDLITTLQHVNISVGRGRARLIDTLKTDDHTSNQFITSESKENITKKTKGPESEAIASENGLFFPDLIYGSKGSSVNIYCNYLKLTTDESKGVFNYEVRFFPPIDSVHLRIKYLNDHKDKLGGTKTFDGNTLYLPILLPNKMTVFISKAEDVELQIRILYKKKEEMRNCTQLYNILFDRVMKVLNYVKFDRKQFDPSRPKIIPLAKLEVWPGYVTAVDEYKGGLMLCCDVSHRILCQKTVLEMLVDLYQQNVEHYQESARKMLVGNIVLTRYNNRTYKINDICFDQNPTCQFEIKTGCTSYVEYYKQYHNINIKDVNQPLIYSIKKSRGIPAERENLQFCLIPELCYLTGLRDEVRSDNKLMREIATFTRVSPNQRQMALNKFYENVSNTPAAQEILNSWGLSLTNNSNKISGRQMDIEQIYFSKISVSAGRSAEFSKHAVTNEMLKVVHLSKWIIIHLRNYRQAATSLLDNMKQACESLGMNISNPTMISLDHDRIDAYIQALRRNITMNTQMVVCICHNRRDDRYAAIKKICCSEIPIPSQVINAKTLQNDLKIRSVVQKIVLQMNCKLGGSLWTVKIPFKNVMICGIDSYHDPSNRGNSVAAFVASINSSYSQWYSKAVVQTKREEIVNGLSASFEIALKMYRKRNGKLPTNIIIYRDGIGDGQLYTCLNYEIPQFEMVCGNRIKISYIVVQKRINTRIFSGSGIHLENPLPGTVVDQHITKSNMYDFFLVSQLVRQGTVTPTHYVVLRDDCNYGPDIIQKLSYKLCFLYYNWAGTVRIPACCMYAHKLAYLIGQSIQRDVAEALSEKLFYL

[2] = biological target: T2, Ago3 (Drosophila melanogaster (endogenous in ovaries)), Q7PLK0; experiment: co-IP; conditions: remark: other sources report otherwise
T2 chain: T1 sequence

Molecule	binding [1]	binding [2]
Hsc70-4 (from UniProt P11147 1-651)	binds	–
Hsp90 (from UniProt P02828 1-717)	binds	–
B1	binds	–
B2	–	no binding

Reference: paper doi:10.1101/423210
